Among the data in article doi:10.1101/2022.02.27.481910 (bioRxiv, 2022) are binding values, retold here.

No constants are given. Whether binding was seen depends on the method and setting. Some entries that bind do so weakly or less than the wild type.

The target of the test is KaiC-EE (S431E, T432E) (UniProt Q79PF4). The test is described as follows: cryo-EM structure.

B1: KaiC-EE (S431E, T432E) (enzyme)
chain: EHQAIAKMRTMIEGFDDISHGGLPIGRSTLVSGTSGTGKTLFSIQFLYNGIIEFDEPGVFVTFEETPQDIIKNARSFGWDLAKLVDEGKLFILDASPDPEGQEVVGGFDLSALIERINYAIQKYRARRVSIDSVTSVFQQYDASSVVRRELFRLVARLKQIGATTVMTTERIEEYGPIARYGVEEFVSDNVVILRNVLEGERRRRTLEILKLRGTSHMKGEYPFTITDHGINIFPLGAMRLTQRSSNVRVSSGVVRLDEMCGGGFFKDSIILATGATGTGKTLLVSRFVENACANKERAILFAYEESRAQLLRNAYSWGMDFEEMERQNLLKIVCAYPESAGLEDHLQIIKSEINDFKPARIAIDSLSALARGVSNNAFRQFVIGVTGYAKQEEITGLFTNTSDQFMGAHSITDSHIEEITDTIILLQYVEIRGEMSRAINVFKMRGSWHDKAIREFMISDKGPDIKDSFRNFERIISGSPTRI
B1: the binding result is “binds”.
